Test results: the supplement of paper PMC10849652
The list shows a part of the results.

Amino acid sequences for entries named in this document (tags omitted). A change or cut given only in a name is not applied to a line headed by its entry.
UniProt P54725: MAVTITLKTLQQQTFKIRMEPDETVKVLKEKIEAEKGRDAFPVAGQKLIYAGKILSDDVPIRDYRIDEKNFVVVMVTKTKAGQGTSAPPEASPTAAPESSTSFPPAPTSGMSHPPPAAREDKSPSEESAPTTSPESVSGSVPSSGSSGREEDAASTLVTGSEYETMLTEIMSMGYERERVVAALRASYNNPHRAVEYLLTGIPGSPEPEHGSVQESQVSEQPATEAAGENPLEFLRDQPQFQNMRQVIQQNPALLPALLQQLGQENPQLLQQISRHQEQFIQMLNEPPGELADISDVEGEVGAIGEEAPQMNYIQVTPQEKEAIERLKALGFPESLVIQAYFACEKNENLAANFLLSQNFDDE
UniProt P51159: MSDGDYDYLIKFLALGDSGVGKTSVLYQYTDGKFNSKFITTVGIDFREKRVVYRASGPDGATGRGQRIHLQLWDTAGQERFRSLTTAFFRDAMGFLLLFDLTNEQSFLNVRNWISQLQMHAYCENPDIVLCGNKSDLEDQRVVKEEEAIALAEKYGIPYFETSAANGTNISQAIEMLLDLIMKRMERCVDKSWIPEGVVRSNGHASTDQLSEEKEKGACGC
UniProt Q13636: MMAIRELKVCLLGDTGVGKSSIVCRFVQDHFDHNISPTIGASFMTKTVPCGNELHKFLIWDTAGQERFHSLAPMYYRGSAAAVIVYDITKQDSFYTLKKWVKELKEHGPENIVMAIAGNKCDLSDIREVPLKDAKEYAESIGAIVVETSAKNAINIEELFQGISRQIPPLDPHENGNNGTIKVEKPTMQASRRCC
UniProt Q96QF0: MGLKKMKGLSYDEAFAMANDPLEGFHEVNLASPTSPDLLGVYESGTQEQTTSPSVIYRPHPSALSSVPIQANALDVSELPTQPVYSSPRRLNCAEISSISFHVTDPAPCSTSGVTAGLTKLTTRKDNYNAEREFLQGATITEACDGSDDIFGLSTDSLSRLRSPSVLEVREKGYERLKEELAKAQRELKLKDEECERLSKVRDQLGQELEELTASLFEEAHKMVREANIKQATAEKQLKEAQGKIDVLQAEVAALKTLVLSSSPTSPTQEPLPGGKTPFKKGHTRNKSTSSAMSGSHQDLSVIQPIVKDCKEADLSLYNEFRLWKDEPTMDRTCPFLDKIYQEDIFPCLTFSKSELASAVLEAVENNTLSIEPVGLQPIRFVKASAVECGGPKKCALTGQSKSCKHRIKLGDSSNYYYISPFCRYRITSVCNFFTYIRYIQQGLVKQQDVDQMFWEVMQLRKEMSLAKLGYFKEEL
UniProt P46060: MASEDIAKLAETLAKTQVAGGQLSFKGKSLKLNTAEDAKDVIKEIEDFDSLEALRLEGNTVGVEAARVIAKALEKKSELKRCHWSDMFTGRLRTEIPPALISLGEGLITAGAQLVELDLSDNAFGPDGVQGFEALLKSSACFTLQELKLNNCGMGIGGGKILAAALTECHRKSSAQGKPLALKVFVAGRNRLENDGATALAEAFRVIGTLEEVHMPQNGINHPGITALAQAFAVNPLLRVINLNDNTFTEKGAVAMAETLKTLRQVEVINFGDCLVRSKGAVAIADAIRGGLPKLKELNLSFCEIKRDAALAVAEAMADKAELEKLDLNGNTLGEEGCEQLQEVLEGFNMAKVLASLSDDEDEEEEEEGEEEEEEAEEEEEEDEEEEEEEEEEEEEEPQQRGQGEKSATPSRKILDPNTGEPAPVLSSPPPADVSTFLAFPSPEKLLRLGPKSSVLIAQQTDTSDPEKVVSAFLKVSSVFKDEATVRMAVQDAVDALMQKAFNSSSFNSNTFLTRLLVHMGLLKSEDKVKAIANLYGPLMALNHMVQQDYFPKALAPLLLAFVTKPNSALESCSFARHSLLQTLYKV
UniProt P20338: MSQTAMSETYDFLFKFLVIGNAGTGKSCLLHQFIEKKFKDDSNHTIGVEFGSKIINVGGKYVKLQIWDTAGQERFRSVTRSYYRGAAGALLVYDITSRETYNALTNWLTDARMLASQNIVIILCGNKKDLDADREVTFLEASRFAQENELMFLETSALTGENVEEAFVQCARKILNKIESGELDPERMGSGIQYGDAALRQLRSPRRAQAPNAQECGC
UniProt Q15291, whole entry, looked up: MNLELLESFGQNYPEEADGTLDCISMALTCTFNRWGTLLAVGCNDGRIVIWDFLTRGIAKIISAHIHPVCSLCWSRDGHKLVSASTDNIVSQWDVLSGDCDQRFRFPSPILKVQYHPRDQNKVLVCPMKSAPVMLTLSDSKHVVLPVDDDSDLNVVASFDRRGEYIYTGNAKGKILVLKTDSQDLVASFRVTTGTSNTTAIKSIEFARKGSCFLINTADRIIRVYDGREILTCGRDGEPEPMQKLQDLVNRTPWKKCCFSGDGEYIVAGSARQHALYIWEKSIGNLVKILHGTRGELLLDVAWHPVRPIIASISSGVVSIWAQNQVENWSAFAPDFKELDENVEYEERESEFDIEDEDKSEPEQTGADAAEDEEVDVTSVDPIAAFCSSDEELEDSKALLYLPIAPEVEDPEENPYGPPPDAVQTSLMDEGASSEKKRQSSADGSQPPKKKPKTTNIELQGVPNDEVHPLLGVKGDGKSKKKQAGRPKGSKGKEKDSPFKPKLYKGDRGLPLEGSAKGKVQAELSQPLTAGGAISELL
UniProt P54727: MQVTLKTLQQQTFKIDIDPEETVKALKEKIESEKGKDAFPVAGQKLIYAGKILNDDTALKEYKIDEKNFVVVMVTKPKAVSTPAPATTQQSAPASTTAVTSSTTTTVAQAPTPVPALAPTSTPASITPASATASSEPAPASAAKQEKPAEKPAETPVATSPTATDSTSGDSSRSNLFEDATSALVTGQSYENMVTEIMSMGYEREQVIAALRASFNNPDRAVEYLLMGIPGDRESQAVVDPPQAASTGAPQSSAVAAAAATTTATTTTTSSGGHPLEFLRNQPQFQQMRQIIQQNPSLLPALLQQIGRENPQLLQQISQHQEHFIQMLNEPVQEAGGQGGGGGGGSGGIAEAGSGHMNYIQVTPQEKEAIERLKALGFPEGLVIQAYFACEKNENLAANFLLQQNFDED
UniProt P98175: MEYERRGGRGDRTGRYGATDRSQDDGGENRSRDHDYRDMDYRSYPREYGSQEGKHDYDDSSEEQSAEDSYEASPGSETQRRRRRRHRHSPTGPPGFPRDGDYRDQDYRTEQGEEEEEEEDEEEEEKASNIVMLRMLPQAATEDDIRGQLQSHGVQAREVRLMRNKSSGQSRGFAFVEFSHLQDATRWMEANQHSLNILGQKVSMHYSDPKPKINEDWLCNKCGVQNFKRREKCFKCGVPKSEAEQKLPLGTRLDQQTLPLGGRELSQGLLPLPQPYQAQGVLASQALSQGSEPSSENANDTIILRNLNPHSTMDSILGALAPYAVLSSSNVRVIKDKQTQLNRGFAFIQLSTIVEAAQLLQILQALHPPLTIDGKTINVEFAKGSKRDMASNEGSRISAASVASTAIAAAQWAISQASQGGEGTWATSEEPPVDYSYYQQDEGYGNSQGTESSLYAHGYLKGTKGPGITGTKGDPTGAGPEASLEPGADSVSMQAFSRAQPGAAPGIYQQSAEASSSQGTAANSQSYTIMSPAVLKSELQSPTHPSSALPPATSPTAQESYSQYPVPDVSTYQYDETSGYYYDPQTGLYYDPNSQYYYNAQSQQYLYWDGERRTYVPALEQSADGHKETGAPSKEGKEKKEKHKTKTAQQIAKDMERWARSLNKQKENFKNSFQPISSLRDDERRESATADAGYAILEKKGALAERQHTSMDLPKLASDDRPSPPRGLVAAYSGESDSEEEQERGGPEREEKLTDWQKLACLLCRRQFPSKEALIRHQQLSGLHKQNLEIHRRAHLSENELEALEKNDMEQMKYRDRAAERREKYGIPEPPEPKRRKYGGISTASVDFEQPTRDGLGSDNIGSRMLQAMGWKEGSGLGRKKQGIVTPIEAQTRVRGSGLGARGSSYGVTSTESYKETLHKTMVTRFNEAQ
UniProt P61225: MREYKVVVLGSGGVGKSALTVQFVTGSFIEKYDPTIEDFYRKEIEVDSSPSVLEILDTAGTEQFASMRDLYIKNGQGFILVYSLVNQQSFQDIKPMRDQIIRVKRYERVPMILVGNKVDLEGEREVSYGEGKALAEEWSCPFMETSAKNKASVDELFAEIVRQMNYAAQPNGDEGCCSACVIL
UniProt P61106, whole entry, looked up: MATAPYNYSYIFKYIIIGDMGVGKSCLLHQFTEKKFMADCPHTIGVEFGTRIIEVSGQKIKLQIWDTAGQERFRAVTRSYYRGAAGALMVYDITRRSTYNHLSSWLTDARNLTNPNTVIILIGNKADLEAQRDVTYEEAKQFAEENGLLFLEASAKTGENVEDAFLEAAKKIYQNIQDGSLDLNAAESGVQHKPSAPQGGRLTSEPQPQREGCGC
UniProt Q09028, whole entry, looked up: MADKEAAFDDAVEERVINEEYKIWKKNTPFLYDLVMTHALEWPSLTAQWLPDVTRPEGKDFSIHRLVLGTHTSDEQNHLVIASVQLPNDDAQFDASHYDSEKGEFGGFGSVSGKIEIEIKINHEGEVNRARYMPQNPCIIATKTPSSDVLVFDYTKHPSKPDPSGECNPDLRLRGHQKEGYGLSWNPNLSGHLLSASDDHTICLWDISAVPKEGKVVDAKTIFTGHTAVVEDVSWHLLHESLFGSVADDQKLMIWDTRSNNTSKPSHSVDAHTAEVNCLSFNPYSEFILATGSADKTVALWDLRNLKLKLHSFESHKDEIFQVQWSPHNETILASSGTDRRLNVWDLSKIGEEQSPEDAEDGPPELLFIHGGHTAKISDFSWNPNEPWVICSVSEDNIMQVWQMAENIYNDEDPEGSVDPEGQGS
UniProt P20339: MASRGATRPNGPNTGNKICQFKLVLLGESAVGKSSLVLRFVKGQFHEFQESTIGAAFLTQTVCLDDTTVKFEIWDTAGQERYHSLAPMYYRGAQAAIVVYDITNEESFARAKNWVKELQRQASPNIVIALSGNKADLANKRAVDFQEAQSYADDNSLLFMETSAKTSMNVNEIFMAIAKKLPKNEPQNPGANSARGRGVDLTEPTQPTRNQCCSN
UniProt Q9ULC3: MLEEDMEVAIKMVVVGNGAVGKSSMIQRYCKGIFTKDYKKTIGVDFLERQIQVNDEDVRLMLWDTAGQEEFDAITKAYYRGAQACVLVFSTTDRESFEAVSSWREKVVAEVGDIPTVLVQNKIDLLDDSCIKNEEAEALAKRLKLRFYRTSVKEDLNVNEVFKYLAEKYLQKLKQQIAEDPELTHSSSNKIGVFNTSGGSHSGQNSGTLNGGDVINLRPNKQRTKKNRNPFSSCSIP
UniProt P61006: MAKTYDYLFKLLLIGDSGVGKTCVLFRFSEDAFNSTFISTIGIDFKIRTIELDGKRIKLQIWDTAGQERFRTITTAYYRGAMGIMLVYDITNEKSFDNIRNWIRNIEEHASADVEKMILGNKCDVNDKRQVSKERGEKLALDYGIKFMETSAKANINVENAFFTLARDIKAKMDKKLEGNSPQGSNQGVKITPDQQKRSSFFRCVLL
UniProt P51153: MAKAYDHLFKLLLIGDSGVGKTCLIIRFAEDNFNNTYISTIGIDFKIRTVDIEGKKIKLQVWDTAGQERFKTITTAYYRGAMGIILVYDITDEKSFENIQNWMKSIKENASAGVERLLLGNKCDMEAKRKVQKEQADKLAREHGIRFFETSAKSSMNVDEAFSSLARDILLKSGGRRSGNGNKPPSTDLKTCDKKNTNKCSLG
UniProt Q3YEC7: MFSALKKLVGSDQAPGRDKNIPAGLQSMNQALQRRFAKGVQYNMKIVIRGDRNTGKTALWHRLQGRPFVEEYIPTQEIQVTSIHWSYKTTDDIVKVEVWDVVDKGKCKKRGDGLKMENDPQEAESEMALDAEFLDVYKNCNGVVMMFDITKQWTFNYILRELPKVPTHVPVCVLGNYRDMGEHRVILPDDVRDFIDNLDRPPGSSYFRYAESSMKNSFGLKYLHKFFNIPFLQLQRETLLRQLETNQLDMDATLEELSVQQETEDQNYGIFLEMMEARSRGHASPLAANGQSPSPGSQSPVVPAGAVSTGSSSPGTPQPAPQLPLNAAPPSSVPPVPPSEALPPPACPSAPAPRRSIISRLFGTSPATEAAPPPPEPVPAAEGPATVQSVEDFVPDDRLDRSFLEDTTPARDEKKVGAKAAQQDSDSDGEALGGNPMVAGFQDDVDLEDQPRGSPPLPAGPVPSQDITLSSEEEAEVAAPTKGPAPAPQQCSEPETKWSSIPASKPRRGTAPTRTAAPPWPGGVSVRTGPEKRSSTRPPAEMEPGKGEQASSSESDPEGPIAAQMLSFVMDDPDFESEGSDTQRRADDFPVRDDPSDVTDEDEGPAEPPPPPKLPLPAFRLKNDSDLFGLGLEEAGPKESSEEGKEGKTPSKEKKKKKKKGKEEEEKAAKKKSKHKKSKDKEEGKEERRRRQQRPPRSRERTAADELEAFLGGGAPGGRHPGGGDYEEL
UniProt P51149, whole entry, looked up: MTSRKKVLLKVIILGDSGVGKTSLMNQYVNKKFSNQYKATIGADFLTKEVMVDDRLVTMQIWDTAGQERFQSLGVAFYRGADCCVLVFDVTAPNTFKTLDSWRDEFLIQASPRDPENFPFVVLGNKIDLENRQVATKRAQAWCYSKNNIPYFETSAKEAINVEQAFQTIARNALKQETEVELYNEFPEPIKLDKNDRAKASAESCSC

Experiments:
Assay in all cases: log2 fold change, soluble protein after heating vs DMSO (PISA); higher = thermal stabilisation; K562 cells, 10 uM, 30 min; active = over 0.2 and 3.5 SD of the protein, either way, in both replicates (recomputed)
[1] = compound: NC(=O)Nc1cc(-c2cccc(F)c2)sc1C(=O)N[C@H]1CCCNC1
Method in brief: (§1)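 Aliquots of K562 cells (2×10^6 cells/mL) treated with 10 μM compound for 30 min were heated for 3 min over 48°C-58°C. After pooling and extraction in PBS with 0.5% NP-40 at 4°C, soluble protein from a 21,000xg, 90 min spin was quantified by TMTpro 16plex LC-MS/MS with channel sums equalised. Thermal stability is expressed against control samples, from duplicates, as a log2 fold change.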

[2] = compound: NC(=O)c1cnc(N[C@@H]2CCCC[C@@H]2N)nc1Nc1cccc(-n2nccn2)c1
Method in brief: as §1

[3] = compound: NC1(c2ccc(-c3nc4ccn5c(=O)[nH]nc5c4cc3-c3ccccc3)cc2)CCC1
Method in brief: as §1

[4] = compound: NCC(=O)Nc1ccc(-n2nc(C(F)(F)F)cc2-c2ccc3c(ccc4ccccc43)c2)cc1
Method in brief: as §1

entinostat = compound: Nc1ccccc1NC(=O)c1ccc(CNC(=O)OCc2cccnc2)cc1 [entinostat]
Method in brief: as §1

vorinostat = compound: O=C(CCCCCCC(=O)Nc1ccccc1)NO [vorinostat]
Method in brief: as §1

citarinostat = compound: O=C(CCCCCCNC(=O)c1cnc(N(c2ccccc2)c2ccccc2Cl)nc1)NO [citarinostat]
Method in brief: as §1

silmitasertib = compound: O=C(O)c1ccc2c(c1)nc(Nc1cccc(Cl)c1)c1ccncc12 [silmitasertib]
Method in brief: as §1

[5] = compound: O=C1NC(=O)C(c2cnc3ccccn23)=C1c1cn2c3c(cc(F)cc13)CN(C(=O)N1CCCCC1)CC2
Method in brief: as §1

[6] = compound: c1cc(OCCN2CCCCC2)cc(-c2n[nH]c3ccc(-c4nnc[nH]4)cc23)c1
Method in brief: as §1

entospletinib = compound: c1cn2cc(-c3ccc4cn[nH]c4c3)nc(Nc3ccc(N4CCOCC4)cc3)c2n1 [entospletinib]
Method in brief: as §1

Measured: log2 fold change

RAD23A (UniProt P54725)
inactive: [1] -0.021 | [2] -0.034 | [3] 0.007 | [4] 0.009 | entinostat -0.017 | vorinostat -0.016 | citarinostat 0.025 | silmitasertib -0.002 | [5] -0.076 | [6] -0.001 | entospletinib 0.002

RAB27A (UniProt P51159)
inactive: [1] -0.038 | [2] -0.041 | [3] -0.099 | [4] -0.009 | entinostat 0.015 | vorinostat -0.041 | citarinostat 0.047 | silmitasertib 0.029 | [5] -0.01 | [6] -0.014 | entospletinib -0.044

RAB31 (UniProt Q13636)
inactive: [1] -0.078 | [2] 0.027 | [3] -0.032 | [4] -0.004 | entinostat -0.06 | vorinostat -0.033 | citarinostat -0.003 | silmitasertib -0.016 | [5] -0.054 | [6] 0.026 | entospletinib -0.008

RAB3IP (UniProt Q96QF0)
inactive: [1] -0.014 | [2] -0.179 | [3] -0.074 | [4] -0.351 | entinostat -0.038 | vorinostat 0.024 | citarinostat 0.104 | silmitasertib -0.013 | [5] 0.146 | [6] 0.167 | entospletinib -0.026

RANGAP1 (UniProt P46060)
inactive: [1] 0.023 | [2] -0.063 | [3] -0.093 | [4] -0.053 | entinostat 0.051 | vorinostat 0.076 | citarinostat 0.089 | silmitasertib 0.105 | [5] 0.01 | [6] -0.025 | entospletinib 0.02

RAB4A (UniProt P20338)
inactive: [1] -0.039 | [2] -0.037 | [3] -0.025 | [4] 0.032 | entinostat -0.065 | vorinostat -0.021 | citarinostat 0.029 | silmitasertib -0.025 | [5] -0.009 | [6] -0.069 | entospletinib 0.011

RBM33 (UniProt Q96EV2)
inactive: [1] 0.019 | [2] -0.055 | [3] -0.024 | [4] 0.003 | entinostat 0.027 | vorinostat 0.037 | citarinostat 0.042 | silmitasertib 0.038 | [5] -0.003 | [6] -0.046

RBBP5 isoform 2 (UniProt Q15291)
inactive: [1] -0.123 | [2] -0.223 | [3] 0.151 | [4] 0.02 | entinostat -0.249 | vorinostat 0.086 | citarinostat 0.033 | silmitasertib 0.14 | [5] -0.337 | [6] -0.153 | entospletinib -0.044

RAD23B (UniProt P54727)
inactive: [1] 0.015 | [2] 0.001 | [3] 0.014 | [4] 0.003 | entinostat -0.018 | vorinostat -0.031 | citarinostat -0.02 | silmitasertib -0.002 | [5] -0.018 | [6] -0.01 | entospletinib -0.021

Looked up one by one from above (2):
RAB31 (UniProt Q13636)
inactive: [1] -0.078 | [2] 0.027 | [3] -0.032 | [4] -0.004 | entinostat -0.06 | vorinostat -0.033 | citarinostat -0.003 | silmitasertib -0.016 | [5] -0.054 | [6] 0.026 | entospletinib -0.008

RANGAP1 (UniProt P46060)
inactive: [1] 0.023 | [2] -0.063 | [3] -0.093 | [4] -0.053 | entinostat 0.051 | vorinostat 0.076 | citarinostat 0.089 | silmitasertib 0.105 | [5] 0.01 | [6] -0.025 | entospletinib 0.02

Following part.

RAB12, A0A3B3ITT1
inactive: [1] -0.038 | [2] -0.04 | [3] -0.051 | [4] 0.009 | entinostat -0.017 | vorinostat -0.021 | citarinostat 0.074 | silmitasertib 0.021 | [5] -0.024 | [6] -0.037 | entospletinib -0.036

RBM10 isoform 5 (UniProt P98175)
inactive: [1] 0.106 | [2] 0.047 | [3] 0.156 | [4] 0.066 | entinostat -0.039 | vorinostat 0.02 | citarinostat 0.035 | silmitasertib -0.023 | [5] 0.044 | [6] -0.107 | entospletinib -0.026

RAMAC (UniProt Q9BTL3)
inactive: [1] -0.099 | [2] -0.021 | [3] 0.036 | [4] 0.029 | entinostat -0.043 | vorinostat -0.081 | citarinostat -0.052 | silmitasertib 0.002 | [5] -0.094 | [6] -0.073 | entospletinib 0.079

RAP2B (UniProt P61225)
inactive: [1] 0.083 | [2] 0.034 | [3] 0 | [4] 0.063 | entinostat -0.001 | vorinostat -0.068 | citarinostat 0.028 | silmitasertib -0.045 | [5] 0.013 | [6] -0.031 | entospletinib 0.033

RAC2 (UniProt P15153)
inactive: [1] -0.059 | [2] 0.005 | [3] 0 | [4] -0.024 | entinostat -0.031 | vorinostat -0.043 | citarinostat -0.014 | silmitasertib -0.036 | [5] -0.012 | [6] -0.01 | entospletinib 0.014

RAB14 (UniProt P61106)
inactive: [1] 0.002 | [2] -0.024 | [3] -0.003 | [4] -0.012 | entinostat -0.009 | vorinostat -0.044 | citarinostat 0.033 | silmitasertib 0.005 | [5] -0.011 | [6] -0.005 | entospletinib -0.01

RBBP4 (UniProt Q09028)
inactive: [1] -0.036 | [2] -0.054 | [3] 0.015 | [4] -0.02 | entinostat -0.027 | vorinostat -0.043 | citarinostat 0.059 | silmitasertib 0.006 | [5] -0.055 | [6] -0.019 | entospletinib 0.003

RAB5A (UniProt P20339)
inactive: [1] 0.053 | [2] 0.092 | [3] 0.026 | [4] 0.116 | entinostat 0.06 | vorinostat 0.091 | citarinostat -0.007 | silmitasertib -0.055 | [5] 0.04 | [6] 0.034 | entospletinib -0.04

RAB6D (UniProt Q53S08)
inactive: [1] -0.009 | [2] 0.006 | [3] -0.081 | [4] -0.014 | entinostat -0.015 | vorinostat -0.041 | citarinostat 0.011 | silmitasertib -0.007 | [5] -0.013 | [6] -0.058 | entospletinib -0.068

RAB23 (UniProt Q9ULC3)
inactive: [1] -0.065 | [2] 0.049 | [3] -0.083 | [4] -0.039 | entinostat -0.034 | vorinostat -0.01 | citarinostat -0.006 | silmitasertib 0.022 | [5] -0.03 | [6] 0.015 | entospletinib -0.06

RACK1 (UniProt D6RHH4)
inactive: [1] -0.43 | [2] -0.192 | [3] 0.064 | [4] -0.264 | entinostat 0.172 | vorinostat -0.052 | citarinostat -0.164 | silmitasertib 0.02 | [5] -0.509 | [6] -0.123 | entospletinib 0.296

RAB8A (UniProt P61006)
inactive: [1] 0.108 | [2] 0.031 | [3] 0.018 | [4] 0.017 | entinostat -0.049 | vorinostat -0.075 | citarinostat -0.046 | silmitasertib -0.022 | [5] -0.035 | [6] -0.033 | entospletinib 0.042

RAB3A (UniProt P20336)
inactive: [1] -0.05 | [2] 0.03 | [3] 0.165 | [4] -0.057 | entinostat -0.017 | vorinostat 0.03 | citarinostat 0.023 | silmitasertib 0.087 | [5] -0.258 | [6] 0.017 | entospletinib 0.022

RAB2B (UniProt Q8WUD1)
inactive: [1] 0.037 | [2] 0.016 | [3] -0.012 | [4] -0.009 | entinostat 0.002 | vorinostat 0.006 | citarinostat 0.018 | silmitasertib -0.021 | [5] -0.059 | [6] -0.021 | entospletinib -0.03

RAB13 (UniProt P51153)
inactive: [1] 0.095 | [2] 0.027 | [3] -0.046 | [4] 0.199 | entinostat 0.074 | vorinostat 0.01 | citarinostat 0.046 | silmitasertib -0.024 | [5] 0.05 | [6] 0.077 | entospletinib -0.082

RANBP1 (UniProt P43487)
inactive: [1] -0.043 | [2] 0.008 | [3] -0.02 | [4] 0.053 | entinostat -0.02 | vorinostat 0.015 | citarinostat 0.02 | silmitasertib -0.008 | [5] 0.095 | [6] -0.001 | entospletinib -0.025

RABL6 (UniProt Q3YEC7)
inactive: [1] 0.05 | [2] 0.009 | [3] 0.022 | [4] 0.033 | entinostat -0.007 | vorinostat -0.057 | citarinostat 0.003 | silmitasertib -0.043 | [5] 0.004 | [6] -0.007 | entospletinib -0.022

RAB7A (UniProt P51149)
inactive: [1] -0.002 | [2] -0.009 | [3] -0.029 | [4] 0.016 | entinostat -0.026 | vorinostat -0.016 | citarinostat 0.015 | silmitasertib -0.019 | [5] -0.009 | [6] 0.004 | entospletinib 0.013
